These are yes or no findings as the source states them, for the method shown. A result given as binding can be weak or reduced; the word gives no strength.
What was measured:
[1] = molecular target: cynomolgus monkey B7-H3 (cynomolgus monkey); assay: summary of Example 9
[2] = molecular target: cynomolgus monkey B7-H3 (cynomolgus monkey); assay: Cyno Cross-Reactivity
[3] = molecular target: cynomolgus monkey B7-H3 (cynomolgus monkey); assay: Cynomolgus B7-H3 Binding grade
[4] = molecular target: cynomolgus monkey B7-H3 (cynomolgus monkey); assay: summary of panel
[5] = molecular target: cynomolgus monkey B7-H3 (cynomolgus monkey); assay: IHC on cynomolgus tissues
[6] = molecular target: cynomolgus monkey B7-H3 (cynomolgus monkey); assay: Cyno B7-H3 Binding grade
[7] = molecular target: cynomolgus monkey B7-H3 (cynomolgus monkey); assay: summary of activities

Measured: binding

B1: BRCA69D (antibody, IgG1, V domains shown)
VH: QVQLQQSGAELARPGASVKLSCKASGYTFTSYWMQWVKQRPGQGLEWIGTIYPGDGDTRYTQKFKGKATLTADKSSSTAYMQLSSLASEDSAVYYCARRGIPRLWYFDVWGAGTTVTVSS
VL: DIQMTQTTSSLSASLGDRVTISCRASQDISNYLNWYQQKPDGTVKLLIYYTSRLHSGVPSRFSGSGSGTDYSLTIDNLEQEDIATYFCQQGNTLPPTFGGGTKLEIK
binds: [1] | [2] | [3] | [4] | [5] | [6] | [7]

B2: PRCA157 (antibody, IgG1, V domains shown)
VH: EVQQVESGGDLVKPGGSLKLSCAASGFTFSSYGMSWVRQTPDKRLEWVATINSGGSNTYYPDSLKGRFTISRDNAKNTLYLQMRSLKSEDTAMYYCARHDGGAMDYWGQGTSVTVSS
VL: DIQMTQSPASLSVSVGETVTITCRASESIYSYLAWYQQKQGKSPQLLVYNTKTLPEGVPSRFSGSGSGTQFSLKINSLQPEDFGRYYCQHHYGTPPWTFGGGTNLEIK
notes: murine mAb, IgG1/k
binds: [1] | [2] | [3] | [4] | [5] | [6] | [7]
